{
  "source": "the supplement of paper PMC3682954",
  "tested_on": "RAW 264.7",
  "test": "cell viability (MTT) relative to vehicle control; higher = more viable cells",
  "details": "stimulus: HMGB1 5 ug/ml, 18 h",
  "key": {"[1]": {"details": "compound concentration: 1 ug/ml"}},
  "note": "Structures can show the parent of a compound that is named as a salt. ± gives the standard deviation of the averaged measurements. The list shows a part of the results. Single values are uncertain, as repeats are few or missing.",
  "data": [
    {"smiles": "NC[C@@H](O)c1ccc(O)c(O)c1", "note": "[L(-)-Norepinephrine bitartrate]", "values": [
      {"measurement": "cell viability", "setting": "compound concentration: 3 uM", "value": 111, "unit": "%"}
    ]},
    {"smiles": "Nc1nc(Cl)nc2c1ncn2[C@@H]1O[C@H](COP(=O)(O)OP(=O)(O)OP(=O)(O)O)[C@H](O)C1O", "note": "(some centres not stated) [2-Chloroadenosine triphosphate tetrasodium]", "values": [
      {"measurement": "cell viability", "setting": "compound concentration: 3 uM", "value": 105, "unit": "%"}
    ]},
    {"smiles": "C[C@@H]1C[C@H]2[C@@H]3C[C@H](F)C4=CC(=O)C=C[C@]4(C)[C@@]3(Cl)[C@@H](O)C[C@]2(C)[C@H]1C(=O)COC(=O)C(C)(C)C", "note": "[Clocortolone pivalate]", "values": [
      {"measurement": "cell viability", "setting": "compound concentration: 3 uM", "value": 74, "unit": "%"}
    ]},
    {"smiles": "Cc1c(C)c2c(c(C)c1OC(=O)CCC(=O)O)CC[C@@](C)(CCC[C@H](C)CCC[C@H](C)CCCC(C)C)O2", "note": "[(+)-alpha-Tocopherol acid succinate]", "values": [
      {"measurement": "cell viability", "setting": "[1]", "value": 104, "unit": "%"}
    ]},
    {"smiles": "Oc1cc2c(cc1O)CN(C(=S)NCCc1ccc(Cl)cc1)CCC2", "note": "[Capsazepine]", "values": [
      {"measurement": "cell viability", "setting": "compound concentration: 3 uM", "value": 106, "unit": "%"}
    ]},
    {"smiles": "CCCCCC(=O)O[C@]1(C(C)=O)CC[C@H]2[C@@H]3CCC4=CC(=O)CC[C@]4(C)[C@H]3CC[C@@]21C", "values": [
      {"measurement": "cell viability", "setting": "compound concentration: 3 uM", "value": 109, "unit": "%"}
    ]},
    {"smiles": "CCCCCCC(=O)OC1CC(C)(C)NC(C)(C)C1", "note": "[TMPH hydrochloride]", "values": [
      {"measurement": "cell viability", "setting": "compound concentration: 3 uM", "value": 111, "unit": "%"}
    ]},
    {"smiles": "Cc1cc(Cn2cnc3c2C[C@@H](C(=O)O)N(C(=O)C(c2ccccc2)c2ccccc2)C3)ccc1N", "values": [
      {"measurement": "cell viability", "setting": "compound concentration: 3 uM", "value": 90.1, "unit": "%"}
    ]},
    {"smiles": "CC1(C)C[C@@H]1C(=O)N/C(=C\\CCCCSC[C@H](N)C(=O)O)C(=O)O", "note": "[Cilastatin]", "values": [
      {"measurement": "cell viability", "setting": "compound concentration: 3 uM", "value": 93.8, "unit": "%"}
    ]},
    {"smiles": "CC1(C)C[C@@H]1C(=O)N/C(=C\\CCCCSC[C@H](N)C(=O)O)C(=O)O", "values": [
      {"measurement": "cell viability", "setting": "compound concentration: 3 uM", "value": 89.7, "unit": "%"}
    ]},
    {"smiles": "Cc1coc2c1C(=O)C(=O)c1c-2ccc2c1CCCC2(C)C", "values": [
      {"measurement": "cell viability", "setting": "compound concentration: 3 uM", "value": 131, "unit": "%"}
    ]},
    {"smiles": "Cc1coc2c1C(=O)C(=O)c1c-2ccc2c1CCCC2(C)C", "note": "[Tanshinone IIA]", "values": [
      {"measurement": "cell viability", "setting": "compound concentration: 3 uM", "value": 117, "unit": "%"}
    ]},
    {"smiles": "CO/N=C(\\C(=O)N[C@@H]1C(=O)N2C(C(=O)[O-])=C(C[N+]3(C)CCCC3)CS[C@H]12)c1csc(N)n1", "note": "[Cefepime]", "values": [
      {"measurement": "cell viability", "setting": "compound concentration: 3 uM", "value": 96.7, "unit": "%"}
    ]},
    {"smiles": "O=C1Cc2c([nH]c3ccc(Br)cc23)-c2ccccc2N1", "note": "[Kenpaullone]", "values": [
      {"measurement": "cell viability", "setting": "compound concentration: 3 uM", "value": 114, "unit": "%"}
    ]},
    {"smiles": "CC[C@H]1OC(=O)C[C@@H](O)[C@H](C)[C@@H](O[C@@H]2O[C@H](C)[C@@H](O)[C@H](N(C)C)[C@H]2O)[C@@H](CCN2C[C@H](C)C[C@H](C)C2)C[C@@H](C)C(=O)/C=C/C(C)=C/[C@@H]1CO[C@@H]1O[C@H](C)[C@@H](O)[C@@H](OC)[C@H]1OC", "values": [
      {"measurement": "cell viability", "setting": "compound concentration: 3 uM", "value": 106, "unit": "%"}
    ]},
    {"smiles": "CNCCCC12CCC(c3ccccc31)c1ccccc12", "note": "[Maprotiline]", "values": [
      {"measurement": "cell viability", "setting": "compound concentration: 3 uM", "value": 98.2, "unit": "%"}
    ]},
    {"smiles": "CNCCCC12CCC(c3ccccc31)c1ccccc12", "note": "[Maprotilline HCl]", "values": [
      {"measurement": "cell viability", "setting": "compound concentration: 3 uM", "value": 94.5, "unit": "%"}
    ]},
    {"smiles": "CNCCCC12CCC(c3ccccc31)c1ccccc12", "values": [
      {"measurement": "cell viability", "setting": "compound concentration: 3 uM", "value": 107, "unit": "%"}
    ]},
    {"smiles": "CNCCCC12CCC(c3ccccc31)c1ccccc12", "note": "[Maprotiline hydrochloride]", "values": [
      {"measurement": "cell viability", "setting": "compound concentration: 3 uM", "value": "105 ± 8.1", "unit": "%"}
    ]},
    {"smiles": "OC(c1cc(C(F)(F)F)nc2c(C(F)(F)F)cccc12)C1CCCCN1", "note": "(configuration not stated) [Mefloquine hydrochloride]", "values": [
      {"measurement": "cell viability", "setting": "compound concentration: 3 uM", "value": 99.4, "unit": "%"}
    ]},
    {"smiles": "OC(c1cc(C(F)(F)F)nc2c(C(F)(F)F)cccc12)C1CCCCN1", "note": "(configuration not stated)", "values": [
      {"measurement": "cell viability", "setting": "compound concentration: 3 uM", "value": 94.2, "unit": "%"}
    ]},
    {"smiles": "C[C@@H]1O[C@@H](OC[C@H]2O[C@@H](Oc3c(-c4ccc(OCCO)c(OCCO)c4)oc4cc(OCCO)cc(O)c4c3=O)[C@H](O)[C@@H](O)[C@@H]2O)[C@H](O)[C@H](O)[C@H]1O", "values": [
      {"measurement": "cell viability", "setting": "compound concentration: 3 uM", "value": 107, "unit": "%"}
    ]},
    {"smiles": "CCN(CC)C(=O)/C(C#N)=C/c1cc(O)c(O)c([N+](=O)[O-])c1", "note": "[Entacapone]", "values": [
      {"measurement": "cell viability", "setting": "compound concentration: 3 uM", "value": "100 ± 16", "unit": "%"}
    ]},
    {"smiles": "COc1cc(/C=C/C(=O)N2CCCCC2=O)cc(OC)c1OC", "values": [
      {"measurement": "cell viability", "setting": "[1]", "value": 85.4, "unit": "%"}
    ]},
    {"smiles": "CC1(C)O[C@@H]2C[C@H]3[C@@H]4CCC5=CC(=O)CC[C@]5(C)[C@@]4(F)[C@@H](O)C[C@]3(C)[C@]2(C(=O)CCl)O1", "values": [
      {"measurement": "cell viability", "setting": "compound concentration: 3 uM", "value": 118, "unit": "%"}
    ]},
    {"smiles": "CC1(C)O[C@@H]2C[C@H]3[C@@H]4CCC5=CC(=O)CC[C@]5(C)[C@@]4(F)[C@@H](O)C[C@]3(C)[C@]2(C(=O)CCl)O1", "note": "[Halcinonide]", "values": [
      {"measurement": "cell viability", "setting": "compound concentration: 3 uM", "value": 108, "unit": "%"}
    ]},
    {"smiles": "C[C@]12C=CC(=O)C=C1CC[C@H]1[C@@H]3C[C@@H](O)[C@](O)(C(=O)CO)[C@@]3(C)C[C@H](O)[C@@]12F", "note": "[Triamcinolone]", "values": [
      {"measurement": "cell viability", "setting": "compound concentration: 3 uM", "value": "104 ± 11", "unit": "%"}
    ]},
    {"smiles": "C[C@]12C=CC(=O)C=C1CC[C@H]1[C@@H]3C[C@@H](O)[C@](O)(C(=O)CO)[C@@]3(C)C[C@H](O)[C@@]12F", "values": [
      {"measurement": "cell viability", "setting": "compound concentration: 3 uM", "value": 111, "unit": "%"}
    ]},
    {"smiles": "CC(=O)O[C@H]1C[C@@H]2CC[C@@H]3[C@H](CC[C@@]4(C)[C@H]3C[C@H]([N+]3(C)CCCCC3)[C@@H]4OC(C)=O)[C@@]2(C)C[C@@H]1N1CCCCC1", "note": "[Vecuronium]", "values": [
      {"measurement": "cell viability", "setting": "compound concentration: 3 uM", "value": 107, "unit": "%"}
    ]},
    {"smiles": "CC(=O)O[C@H]1C[C@@H]2CC[C@@H]3[C@H](CC[C@@]4(C)[C@H]3C[C@H]([N+]3(C)CCCCC3)[C@@H]4OC(C)=O)[C@@]2(C)C[C@@H]1N1CCCCC1", "note": "[Vecuronium bromide]", "values": [
      {"measurement": "cell viability", "setting": "compound concentration: 3 uM", "value": 100, "unit": "%"}
    ]},
    {"smiles": "CC(=O)O[C@H]1C[C@@H]2CC[C@@H]3[C@H](CC[C@@]4(C)[C@H]3C[C@H]([N+]3(C)CCCCC3)[C@@H]4OC(C)=O)[C@@]2(C)C[C@@H]1N1CCCCC1", "values": [
      {"measurement": "cell viability", "setting": "compound concentration: 3 uM", "value": "107 ± 8.5", "unit": "%"}
    ]},
    {"smiles": "Cc1cc(C)cc(OCC2CNC(=O)O2)c1", "note": "(configuration not stated)", "values": [
      {"measurement": "cell viability", "setting": "compound concentration: 3 uM", "value": 111, "unit": "%"}
    ]},
    {"smiles": "C[C@@H](O)[C@H]1C(=O)N2C(C(=O)O)=C(S[C@@H]3CN[C@H](C(=O)N(C)C)C3)[C@H](C)[C@H]12", "values": [
      {"measurement": "cell viability", "setting": "compound concentration: 3 uM", "value": 95.6, "unit": "%"}
    ]},
    {"smiles": "C[C@@H](O)[C@H]1C(=O)N2C(C(=O)O)=C(S[C@@H]3CN[C@H](C(=O)N(C)C)C3)[C@H](C)[C@H]12", "note": "[Meropenem]", "values": [
      {"measurement": "cell viability", "setting": "compound concentration: 3 uM", "value": "97.8 ± 1.8", "unit": "%"}
    ]},
    {"smiles": "CCCCCCCC/C=C\\CCCCCCCC(=O)NCCO", "note": "[N-Oleoylethanolamine]", "values": [
      {"measurement": "cell viability", "setting": "compound concentration: 3 uM", "value": 110, "unit": "%"}
    ]},
    {"smiles": "CC1(C)CC[C@]2(C(=O)O)CC[C@]3(C)C(=CC[C@@H]4[C@@]5(C)CC[C@H](O)C(C)(C)[C@@H]5CC[C@]43C)[C@@H]2C1", "note": "[Oleanolic acid; oleanol;  caryophyllin]", "values": [
      {"measurement": "cell viability", "setting": "[1]", "value": 96.4, "unit": "%"}
    ]},
    {"smiles": "CC(C)NC[C@H](O)COc1cccc2ccccc12", "note": "[(S)-Propranolol hydrochloride]", "values": [
      {"measurement": "cell viability", "setting": "compound concentration: 3 uM", "value": 110, "unit": "%"}
    ]},
    {"smiles": "CC(C)NC[C@H](O)COc1cccc2ccccc12", "note": "[Propranolol S(-)]", "values": [
      {"measurement": "cell viability", "setting": "compound concentration: 3 uM", "value": 101, "unit": "%"}
    ]},
    {"smiles": "CC(C)NC[C@H](O)COc1cccc2ccccc12", "note": "[(S)-propranolol hydrochloride]", "values": [
      {"measurement": "cell viability", "setting": "compound concentration: 3 uM", "value": 90.6, "unit": "%"}
    ]},
    {"smiles": "O=c1c(-c2ccc(O)cc2)coc2cc(O)ccc12", "values": [
      {"measurement": "cell viability", "setting": "[1]", "value": 96.2, "unit": "%"}
    ]},
    {"smiles": "O=c1c(-c2ccc(O)cc2)coc2cc(O)ccc12", "note": "[Daidzein]", "values": [
      {"measurement": "cell viability", "setting": "compound concentration: 3 uM", "value": 97, "unit": "%"}
    ]},
    {"smiles": "Clc1ccc(C(c2ccc(Cl)cc2)[n+]2ccn(CC(OCc3ccc(Cl)cc3Cl)c3ccc(Cl)cc3Cl)c2)cc1", "note": "(configuration not stated) [Calmidazolium chloride]", "values": [
      {"measurement": "cell viability", "setting": "compound concentration: 3 uM", "value": 108, "unit": "%"}
    ]}
  ]
}
